PubChem BioAssay AID2551 (National Center for Advancing Translational Sciences (NCATS), 2010)
Several values for one entry are separate records, joined by “and”; a condition that tells them apart may be missing. Equal entries are not always repeated. In all, about 310,000 compounds went through this assay and about 17,000 (5.5%) were called active. Inconclusive means that the source gave no clear call. Such entries were picked first, then a sample of the others. Calls follow the shape of the dose curve; as a rule, active = well fitted inhibition curve with a large enough effect; inconclusive = small, poorly fitted or top-dose-only effect, or effect the other way; inactive = no such curve, though single readings can be large or run the other way. Where the call is inconclusive, the potency comes from a doubtful curve fit.

Protein sequences, listed by entry. Tags and fused reporters are not part of them. Lines headed by an entry give the natural chain unless they say otherwise; changes in a name come on top.
UniProt P51450: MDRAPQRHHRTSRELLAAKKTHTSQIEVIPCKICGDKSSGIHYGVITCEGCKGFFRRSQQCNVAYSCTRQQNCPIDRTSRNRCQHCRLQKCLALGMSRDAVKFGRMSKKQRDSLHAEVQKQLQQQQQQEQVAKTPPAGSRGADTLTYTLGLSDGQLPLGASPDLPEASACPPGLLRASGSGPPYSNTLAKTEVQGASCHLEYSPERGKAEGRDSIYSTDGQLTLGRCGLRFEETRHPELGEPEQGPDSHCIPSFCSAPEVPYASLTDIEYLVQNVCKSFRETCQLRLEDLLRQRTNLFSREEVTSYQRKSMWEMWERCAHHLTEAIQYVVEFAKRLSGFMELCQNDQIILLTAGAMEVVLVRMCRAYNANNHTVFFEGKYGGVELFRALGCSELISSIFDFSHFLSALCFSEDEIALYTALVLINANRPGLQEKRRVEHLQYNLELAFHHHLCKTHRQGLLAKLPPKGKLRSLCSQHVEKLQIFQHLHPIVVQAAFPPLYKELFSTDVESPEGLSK

Each compound was assayed against Nuclear receptor ROR-gamma (Mus musculus) (UniProt P51450) (assay: qHTS for inhibitors of ROR gamma transcriptional activity). Details: Drosophila S2 Gal4-RORgamma UAS-luciferase reporter, 20 h; series mostly up to 53.6 µM.
Outline: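 Using a luciferase readout, inhibitors were identified by reduced reporter activity in Drosophila cells coexpressing a copper-inducible Gal4–ROR gamma fusion and UAS-driven Photinus luciferase, incubated 20 hr after 700 uM copper sulfate.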
Also: nearly all actives have a fitted effect of over 60% in size.
Potency is read from the fitted curve at half-maximal effect.

| Compound | Potency |
| --- | --- |
| NC(=O)C1CCN(C(=O)c2ccc(Oc3ccccc3)cc2)CC1 | inconclusive: 0.282 µM [activator, full curve, poor fit] |
| COc1ccccc1NC(=O)c1c(N=Cc2c(O)ccc3ccccc23)cnn1C | inconclusive: 6.31 µM [inhibitor, single point] |
| C=CCn1c(SCc2c(C(=O)OC)sc(N)c2C(=O)OC)nnc1-c1ccc(Br)cc1 | inactive |
| COc1cccc2c1Oc1ncccc1N(C(=O)CCC(=O)NCc1ccc(C)cc1)C2 | inactive |
| FC(F)(F)c1cccc(NC(=S)N2CCN(c3ccccc3)CC2)c1 | inconclusive: 0.1 µM [inhibitor, full curve, poor fit] |
| CC(=O)c1ccc(N2CCN(CC(=O)Nc3cc(C)on3)CC2)cc1 | inactive |
| CN(C)c1ccc(P(=O)(OC2CCCCC2)C(O)c2cccnc2)cc1 (stereo not given) | inactive |
| NNC(=O)c1ccc(CSc2nc3ccccc3s2)cc1 | inconclusive: 35.5 µM [inhibitor, single point] |
| COc1ccc(N2CCN(C(=O)c3cccc(N4C(=O)C5C6C=CC(C6)C5C4=O)c3)CC2)cc1 (stereo not given) | inactive |
| Cc1ccccc1-c1nnc(-c2ccc(Cl)cc2)o1 | inactive |
| Cn1ncc(N=Cc2ccccc2)c1C(=O)Nc1cccc(Cl)c1 | inconclusive: 3.16 µM [activator, single point] |
| CCOC(=O)C1=C(N)N2C(=O)C(C)SC2=C(C(=O)OCC)C1c1ccccc1 (stereo not given) | inconclusive: 10 µM [inhibitor, partial curve, poor fit] |
| Oc1ccc(C(=S)N2CCCCC2)cc1 | inconclusive: 35.5 µM [activator, single point] |
| COc1ccc(N2CCOCC2)c(NC(=O)c2cccnc2)c1 | inconclusive: 20 µM [activator, single point] |
| Cc1sc(NC(=O)Cc2ccc3c(c2)OCO3)nc1-c1ccc2c(c1)CCN2C(=O)c1ccc(F)cc1 | inactive |
| Cc1cc(C)nc(-n2nc(C)cc2NC(=O)CN2CCCC(C)C2)n1 (stereo not given) | active: 0.708 µM |
| O=C(COC(=O)C1C2CC3OC(=O)C1C3C2)Nc1ccc(Br)cc1 (stereo not given) | inactive |
| COc1ccc(CNc2nc(SCC(=O)NCc3ccco3)nc3ccccc23)cc1 | inconclusive: 12.6 µM [activator, single point] |
| Cc1onc(-c2ccccc2)c1C(=O)Nc1nnc(N2CCCCCC2)s1 | inconclusive: 1.26 µM [inhibitor, full curve, poor fit] |
| O=C(CSc1nnc(-c2ccccc2F)n1C1CC1)Nc1cccnc1Cl | inconclusive: 0.398 µM [inhibitor, full curve, poor fit] |
| COc1ccc(S(=O)(=O)N(C)c2ccc(OCC(=O)Nc3cc(C)on3)cc2)cc1 | inconclusive: 28.2 µM [inhibitor, partial curve, poor fit] |
| COc1ccccc1NC(=O)c1cc(C)oc1C | inactive |
| CN(C)c1ccc(C(=O)/C=C/c2ccco2)cc1 | inconclusive: 12.6 µM [inhibitor, single point] |

| Compound | Potency |
| --- | --- |
| CCCC(=O)Nc1ccc(NC(=O)c2ccco2)c(OC)c1 | inactive |
| O=C(COC(=O)/C=C/c1ccc(Cl)cc1Cl)NCc1ccco1 | inactive |
| CCN(CC)S(=O)(=O)c1ccc2oc(C(=O)NC3CC3)c(C)c2c1 | inconclusive: 10 µM [activator, partial curve] |
| COc1ccc(C2CC(c3c(O)cc(C)oc3=O)=NCCS2)c(OC)c1 (stereo not given) | inconclusive: 22.4 µM [inhibitor, single point] and inconclusive: 10 µM [inhibitor, partial curve] |
| Cc1ccc(N(C(=O)CCl)C(C(=O)NC2CCCCC2)c2cccnc2)cc1C (stereo not given) | active: 11.2 µM |
| O=C(NC1=NC2CCCCC2N1)c1ccccc1 (stereo not given) | inconclusive: 0.0316 µM [inhibitor, full curve, poor fit] |
| Cn1nnc(NC(=S)NC(=O)c2ccccc2)n1 | active: 3.55 µM |
| CCOC(=O)c1ccc(N2C(=O)c3n[nH]c(C)c3C2c2ccc(O)cc2)cc1 (stereo not given) | inactive |
| O=C(NCc1ccco1)C(c1cccs1)N(Cc1ccccc1)C(=O)Cn1nnc2ccccc21 (stereo not given) | inconclusive: 8.91 µM [activator, partial curve] |
| CCN(CC)c1ccc(/C=N/NC(=O)c2ccc3nc[nH]c3c2)c(O)c1 | inconclusive: 1.41 µM [inhibitor, full curve, poor fit] |
| COc1ccc(-c2noc(C3CCCN(C(=O)c4cccc(F)c4)C3)n2)cc1 (stereo not given) | inconclusive: 11.2 µM [activator, partial curve] |
| CCCc1cc(C(=O)Nc2nnc(C)s2)cs1 | inconclusive: 20 µM [inhibitor, single point] |
| O=C(O)[C@H]1CCCC[C@H]1C(=O)Nc1ccc(Nc2ccccc2)cc1 | inconclusive: 5.62 µM [activator, single point] |
| CC(C)COP(=O)(OCC(C)C)C(O)c1ccc(N(C)C)cc1 (stereo not given) | inconclusive: 11.2 µM [inhibitor, partial curve] |
| CCCOc1ccc(OCCn2nc(C(=O)O)c3ccccc3c2=O)cc1 | inconclusive: 5.01 µM [activator, full curve, poor fit] |
| Cc1ccc(S(=O)(=O)N2CCN(CC(O)COc3ccccc3)CC2)cc1 (stereo not given) | inactive |
| N#Cc1ccc2ccn(CC(=O)NCc3ccccc3)c2c1 | inconclusive: 0.631 µM [inhibitor, single point] |
| c1coc(C2=NCCc3ccccc32)c1 | inconclusive: 3.55 µM [inhibitor, single point] |
| NC(=O)CC(NC(=O)c1ccccc1)c1ccc(NC2CCCCCCC2)c([N+](=O)[O-])c1 (stereo not given) | inconclusive: 11.2 µM [activator, partial curve] |
| Fc1ccc(F)c(C2=NNC(=Nc3ccccc3F)SC2)c1 | inconclusive: 35.5 µM [inhibitor, single point] |
| O=C(O)C1Cc2c([nH]c3ccccc23)C(c2coc3ccccc3c2=O)N1 (stereo not given) | inactive |
| COC(=O)c1cc(NC(=O)c2cc3ccccc3o2)cc(C(=O)OC)c1 | inconclusive: 22.4 µM [activator, single point] |

Molecules from the list above containing bromine, in the order listed:

| Compound | Potency |
| --- | --- |
| C=CCn1c(SCc2c(C(=O)OC)sc(N)c2C(=O)OC)nnc1-c1ccc(Br)cc1 | inactive |
| O=C(COC(=O)C1C2CC3OC(=O)C1C3C2)Nc1ccc(Br)cc1 (stereo not given) | inactive |
